For 2 molecules, binding results are on record in PMC3267021, “The Molecular Basis for the Endocytosis of Small R-SNAREs by the Clathrin Adaptor CALM” (Cell, 2011).

The experiment concerns the target GST-VAMP3 (VAMP3 residues 1-81) (human). Put plainly: pull-down; GST-tagged bait (SNARE or preformed, purified 1:1:1 SNARE complex, 2 nmoles) on glutathione beads, His6Myc-tagged prey; 20 mM HEPES pH 7.4, 150 mM NaCl, 4 mM DTT, 4 mM β-mercaptoethanol, 0.1% NP-40, 0.05% BSA; 4°C overnight; Coomassie gel and anti-myc western blot; both purified. (In western blotting, separated proteins are transferred to a membrane and probed.)

Results are given in words; binding and its absence hold for the method and conditions named. Binding can be weak; no strength is given. Sequences can lack the tags named with a protein.

B1: His6MycAP180_(ANTH) (AP180 ANTH domain, residues 1-304) (domain or fragment, UniProt Q61548 1-304)
chain: MSGQTLTDRIAAAQYSVTGSAVARAVCKATTHEVMGPKKKHLDYLIQATNETNVNIPQMADTLFERATNSSWVVVFKALVTTHHLMVHGNERFIQYLASRNTLFNLSNFLDKSGSHGYDMSTFIRRYSRYLNEKAFSYRQMAFDFARVKKGADGVMRTMVPEKLLKSMPILQGQIDALLEFDVHPNELTNGVINAAFMLLFKDLIKLFACYNDGVINLLEKFFEMKKGQCKDALEIYKRFLTRMTRVSEFLKVAEQVGIDKGDIPDLTQAPSSLMETLEQHLNTLEGKKPGNNEGSGAPSPLSK
For the molecule B1, the binding entry is “no binding”.

B2: His6MycCALM_(ANTH) (CALM ANTH domain, residues 1-289) (domain or fragment, UniProt O55012 1-289)
chain: MSGQSLTDRITAAQHSVTGSAVSKTVCKATTHEIMGPKKKHLDYLIQCTNEMNVNIPQLADSLFERTTNSSWVVVFKSLITTHHLMVYGNERFIQYLASRNTLFNLSNFLDKSGLQGYDMSTFIRRYSRYLNEKAVSYRQVAFDFTKVKRGADGVMRTMNTEKLLKTVPIIQNQMDALLDFNVNSNELTNGVINAAFMLLFKDAIRLFAAYNEGIINLLEKYFDMKKNQCKEGLDIYKKFLTRMTRISEFLKVAEQVGIDRGDIPDLSQAPSSLLDALEQHLASLEGKK
As for B2, the binding result is on record as “binds”.
